Assay results taken from paper PMC8452764.
Results are given in words; binding and its absence hold for the method and conditions named. Binding seen in cells or lysates may run through a third protein. Some entries that bind do so weakly or less than the wild type.

The chains behind the UniProt entries cited, without tags or fusion partners.
UniProt P05928: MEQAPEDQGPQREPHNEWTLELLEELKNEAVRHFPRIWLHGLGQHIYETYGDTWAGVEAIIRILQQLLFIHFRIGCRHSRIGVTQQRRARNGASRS
UniProt Q9H4Z3: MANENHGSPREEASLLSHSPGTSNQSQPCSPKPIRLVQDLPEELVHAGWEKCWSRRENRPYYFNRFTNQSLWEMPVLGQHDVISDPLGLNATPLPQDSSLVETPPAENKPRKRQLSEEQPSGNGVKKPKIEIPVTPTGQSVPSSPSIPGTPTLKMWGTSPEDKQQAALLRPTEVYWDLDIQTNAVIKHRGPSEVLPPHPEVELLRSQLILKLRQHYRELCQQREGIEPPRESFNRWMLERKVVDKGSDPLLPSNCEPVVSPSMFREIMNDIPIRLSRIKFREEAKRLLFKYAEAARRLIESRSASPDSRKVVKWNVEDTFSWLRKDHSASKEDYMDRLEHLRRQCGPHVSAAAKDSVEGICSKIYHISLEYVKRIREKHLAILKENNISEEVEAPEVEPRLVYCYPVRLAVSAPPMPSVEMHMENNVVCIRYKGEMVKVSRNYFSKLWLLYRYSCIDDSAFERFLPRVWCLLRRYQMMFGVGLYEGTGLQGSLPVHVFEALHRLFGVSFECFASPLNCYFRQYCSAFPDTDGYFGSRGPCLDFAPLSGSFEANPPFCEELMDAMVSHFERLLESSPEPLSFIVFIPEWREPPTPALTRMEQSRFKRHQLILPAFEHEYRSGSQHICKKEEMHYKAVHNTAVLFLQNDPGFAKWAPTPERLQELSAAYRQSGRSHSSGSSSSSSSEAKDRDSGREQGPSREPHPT

Experiments:
[1] = target: Flag-tagged Vpr (HIV-1 viral protein R, from pLAI.2) (HIV-1 (strain LAI)) (UniProt P05928); assay: co-IP; HeLa cells co-transfected with plvx-PCIF and Flag-Vpr for 2 days; lysate in IP lysis buffer, anti-Flag M2 antibody (mouse IgG as control) overnight at 4 °C, protein G magnetic beads; PCIF1 and Vpr detected by western blotting
[2] = target: Flag-tagged PCIF1 expressed in MT4 cells (UniProt Q9H4Z3); assay: co-IP; MT4 cells expressing Flag-PCIF1 infected with HIVLAI (MOI = 1) for 3 days; Flag immunoprecipitation; Flag-PCIF1 and Vpr detected by western blotting

## Phosphorylated CTD Interacting Factor 1 (PCIF1), expressed from plvx-PCIF1 (from UniProt Q9H4Z3 1-704) (enzyme)
[1]
  binding: binds

## Vpr expressed from HIV-1 LAI during infection of MT4 cells (from UniProt P05928 1-96)
[2]
  binding: binds
